Test results published in PubChem BioAssay AID504648 (National Center for Advancing Translational Sciences (NCATS), 2011).
The campaign covered roughly 390,000 compounds. About 610 (0.16%) were called active. The inconclusive results got no clear call from the source; some entries with a clear call stand among them for comparison. Calls come from the whole dose curve; as a rule, active = well fitted inhibition curve with a large enough effect; inconclusive = small, poorly fitted or top-dose-only effect, or effect the other way, or another doubt; inactive = no such curve, though single readings can be large or run the other way. Potencies of inconclusive entries are doubtful fits and often do not repeat.

Experiment: Nrf2 qHTS screen for inhibitors: counterscreen for cytotoxicity
Settings: A549 ARE-Fluc cells, CellTiter-Fluor viability, 18-24 h; series mostly up to 46 µM
In short: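 Cytotoxicity counterscreen: CellTiter-Fluor fluorescence was measured in A549 ARE_Fluc cells after 18-24 h of compound exposure in a concentration series. The subsequent BugLite luminescent read reports ARE-luciferase activity.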
Potency is the fitted concentration of half-maximal effect.

SMILES | Potency
COc1ccccc1OCC(=O)NNc1c2ccccc2nc2ccccc12 | inconclusive: 23.1 µM [falling, single point]
CN(C)C(=O)CSc1nnc(C23CC4CC(CC(C4)C2)C3)o1 | inconclusive: 1.16 µM [falling, single point]
Nc1cccc2c1C(=O)N(C(=O)c1cccc(S(=O)(=O)N3CCCCCC3)c1)C2=O | inconclusive: 12.6 µM [activator, partial curve]
O=C(COc1ccccc1Cc1ccccc1)Nc1cccc(S(=O)(=O)N2CCOCC2)c1 | inactive
CCc1cccc(-n2c(=O)c3cccnc3n2CC(=O)Nc2c(C)cc(C)cc2C)c1 | inactive
CC(=O)c1cccc(NC(=O)COC(=O)C2=COCCO2)c1 | inactive
O=C(O)c1ccc(N/N=C/C(Br)=C/c2ccccc2)cc1 | inconclusive: 5.8 µM [falling, partial curve, poor fit]
CCCCCN(C(=O)CCC(=O)OCC(=O)c1ccc(C(C)CC)cc1)c1c(N)n(CCCC)c(=O)[nH]c1=O (stereo not drawn) | inconclusive: 20.6 µM [falling, single point]
NC(=O)C1CCN(c2oc(-c3cccs3)nc2S(=O)(=O)c2ccc(Cl)cc2)CC1 | inconclusive: 14.6 µM [falling, partial curve, poor fit]
Cc1ccc(Cl)cc1-n1ncc2c(N3CCN(Cc4ccccc4)CC3)ncnc21 | inconclusive: 23.1 µM [falling, single point]
COc1ccc(CNC(=O)C2CCC(CNS(=O)(=O)c3ccc4c(c3)CCCC(=O)N4)CC2)cc1 (stereo not drawn) | inconclusive: 32.6 µM [activator, partial curve, poor fit]
C=CCC[C@@H](Cc1ccc(F)cc1)C(=O)OC[C@H]1CCCN1C(=O)[C@@H](CC=C)CC(=O)N[C@H](CO)Cc1ccccc1 | inconclusive: 25.9 µM [falling, single point]
Cc1ccc(CCNc2ncnc3onc(-c4ccc(Cl)cc4)c23)cc1 | inactive
c1ccc(CN2CCN(C(c3ccccc3)c3ccccc3)CC2)cc1 | inactive
CCOC(=O)Cn1c(-c2cccs2)cc2cc(Cl)ccc21 | inconclusive: 32.6 µM [activator, partial curve, poor fit]
CCc1cccc2c(-c3csc(=NC)n3C)c[nH]c12 | inconclusive: 14.6 µM [falling, partial curve, poor fit]
CN(NC(=O)Nc1ccccc1)c1cnn(C)c(=O)c1Cl | inconclusive: 20.6 µM [activator, partial curve, poor fit]
CCn1nc(C)cc1-c1nnc(Sc2ncc([N+](=O)[O-])s2)n1C | inconclusive: 23.1 µM [falling, single point]

Taken from above.
Potency, `CN(C)C(=O)CSc1nnc(C23CC4CC(CC(C4)C2)C3)o1` reads inconclusive: 1.16 µM [falling, single point]
Potency, `COc1ccc(CNC(=O)C2CCC(CNS(=O)(=O)c3ccc4c(c3)CCCC(=O)N4)CC2)cc1` (stereo not drawn) reads inconclusive: 32.6 µM [activator, partial curve, poor fit]
